Laboratory results: PubChem BioAssay AID652259 (Drosophila RNAi Screening Center, 2013)
In all, the deposit lists about 22,000 reagents; below is a random part of those that have a named target and a result. Over the whole deposit, 233 (1.1%) were called active. 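Light values are raw, unnormalised plate reads; the ratio scores behind the reporter calls were not deposited.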 Unmarked entries are inactive. No sequences are given here. Not given: the amount of reagent, the time to read-out, the dose of the treatment.

Screen: 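Genome-wide hunt for genes that control Wingless pathway activity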 (primary screen)
System: Drosophila clone 8 imaginal disc epithelial cells
Reagent: long dsRNA against Drosophila genes
Treatment: pathway stimulated by co-transfected Wingless expression plasmid
Detection: 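Dual luciferase reads per well after Wingless plasmid stimulation: reporter firefly light and Renilla control light; activity is firefly divided by Renilla, a ratio not deposited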
Direction: firefly reporter light: higher = more Wg reporter light, before normalisation; Renilla control light: higher = more transfected or surviving cells
Active means: 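a knock-down is a candidate when at least two out of four statistical tests show it departing from its plate mean; one test alone signals a weak candidate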
Calls: active = candidate regulator (raises or lowers reporter); inactive = not a candidate

htt [DRSC16970] → firefly reporter light, replicate 1: 6756; Renilla control light, replicate 1: 2199
Chmp1 [DRSC10401] → firefly reporter light, replicate 1: 5062; Renilla control light, replicate 1: 1427
MtnF [DRSC13683] → firefly reporter light, replicate 1: 3328; Renilla control light, replicate 1: 1515
mRpS22 [DRSC14488] → firefly reporter light, replicate 1: 2112; firefly reporter light, replicate 2: 7656; Renilla control light, replicate 1: 923; Renilla control light, replicate 2: 2077
LamC [DRSC07453] → firefly reporter light, replicate 1: 13880; Renilla control light, replicate 1: 2818
CG15643 [DRSC19679] → firefly reporter light, replicate 1: 10434; Renilla control light, replicate 1: 5569
CG10041 [DRSC14179] → firefly reporter light, replicate 1: 17673; Renilla control light, replicate 1: 4288
Cyp4ac3 [DRSC03304] → firefly reporter light, replicate 1: 24682; Renilla control light, replicate 1: 11101
CG10730 [DRSC02102] → firefly reporter light, replicate 1: 2934; firefly reporter light, replicate 2: 6412; Renilla control light, replicate 1: 757; Renilla control light, replicate 2: 3612

Entries listed so far whose target name begins with C or c:
Chmp1 [DRSC10401] → firefly reporter light, replicate 1: 5062; Renilla control light, replicate 1: 1427
CG15643 [DRSC19679] → firefly reporter light, replicate 1: 10434; Renilla control light, replicate 1: 5569
CG10041 [DRSC14179] → firefly reporter light, replicate 1: 17673; Renilla control light, replicate 1: 4288
Cyp4ac3 [DRSC03304] → firefly reporter light, replicate 1: 24682; Renilla control light, replicate 1: 11101
CG10730 [DRSC02102] → firefly reporter light, replicate 1: 2934; firefly reporter light, replicate 2: 6412; Renilla control light, replicate 1: 757; Renilla control light, replicate 2: 3612

Next entries:
CG11379 [DRSC18629] → firefly reporter light, replicate 1: 16291; Renilla control light, replicate 1: 12310
Galphao [DRSC07430] → firefly reporter light, replicate 1: 11670; Renilla control light, replicate 1: 3812
Sur-8 [DRSC15794] → firefly reporter light, replicate 1: 11708; Renilla control light, replicate 1: 3383
CG7335 [DRSC10816] → firefly reporter light, replicate 1: 17260; Renilla control light, replicate 1: 4659
pyr [DRSC06319] → firefly reporter light, replicate 1: 8850; Renilla control light, replicate 1: 3164
pyr [DRSC22520] → firefly reporter light, replicate 1: 8.79e5; firefly reporter light, replicate 2: 9.46e5; Renilla control light, replicate 1: 4.24e5; Renilla control light, replicate 2: 4.37e5
CG18011 [DRSC06697] → firefly reporter light, replicate 1: 8944; Renilla control light, replicate 1: 2540
CG18011 [DRSC06706] → firefly reporter light, replicate 1: 2861; firefly reporter light, replicate 2: 7556; Renilla control light, replicate 1: 1212; Renilla control light, replicate 2: 3575
